The exact form of at least one protein or probe is not confirmed.
System: GST-MdILR3 (Malus x domestica)
Assay: EMSA
Conditions: EMSA with purified MdILR3-GST and biotin probes, 24 °C, 30 min, chemiluminescent EMSA kit, salt and pH not stated, recombinant protein, protein details: GST (pGEX-4T), label: biotin

Row | Sequence | binding result (reduced by unlabeled probe) | binding result
1 | TCTGCCAGGTGTTGACACGTGTCCTATTTGATGACT (double strand) [pMdNRT2.3 G-box probe] | binds | 
2 | GCACATAAGGTGATACACCACGTGTCACTATACAAATGATGA (double strand) [pMdNIA1 G-box probe] | binds | 
3 | AAATTATATTTTTGCCACGTGGCACAAATTTGGCTA (double strand) [pMdNRT2.4 G-box probe] | binds | 
4 | GCCTGTCTCCCTGCCCACGTGTCCATTTAAATCTCC / GGAGATTTAAATGGACACGTGGGCAGGGAGACAGG [pMdSWEET12 G-box probe] |  | binds
